No constants are given. Whether binding was seen depends on the method and setting. In cells and extracts the contact can be indirect. Here binding means that the protein was enriched with, or labelled near, the bait; the list need not be complete. No binding means not detected with the bait.
Biological target: CagL (H. pylori 26695 (endogenous))
Assay: affinity purification with mass spectrometry; polyclonal anti-CagL antibodies cross-linked to Protein A beads; RIPA lysate of WT H. pylori 26695 grown on solid media (48 h; 24 h for the comparison with ΔcagH and ΔcagI mutants); ΔcagL mutant processed in parallel as control; room temperature, washed in PBS with 0.1% Tween-20; MudPIT

B1: CagY (protein, UniProt D3XNT5 1-77)
chain: MGNANEVRDKFIQNYATSLKDSNDPQDFLRRVQELRINMQKNFISFDAYYNYLNNLVLASYTSLQTRKDFCRKHDQK
With B1 as the binder, how does the binding read?
The binding was “no binding”.

Reference: paper PMC3164655
